Assay results: publication PMC8571373
Results are given in words; binding and its absence hold for the method and conditions named. In cells and extracts the contact can be indirect. Some results given as binding are weak or reduced against the parent protein; the word gives no strength. Values belong to the binder of their own block, whether it stands above or below them.

What was measured:
[1] = biological target: EGFR (epidermal growth factor receptor, ErbB-1/HER-1), in PLC/PRF/5-STEAP3 cells (human (endogenous in PLC/PRF/5)) (UniProt P00533); test: co-IP; cell lysates (PLC/PRF/5-STEAP3; HEK293) incubated with primary antibodies overnight at 4 °C, Crosslink Magnetic IP/Co-IP Kit, then western blot
[2] = biological target: EGFR (epidermal growth factor receptor, ErbB-1/HER-1), in HEK293 cells (human (endogenous in HEK293)) (UniProt P00533); test: as above

binding [1]: binds
B1: STEAP3 (Six-transmembrane epithelial antigen of the prostate 3), stably overexpressed in PLC/PRF/5-STEAP3 cells (protein, UniProt Q658P3 1-488)
chain: MPEEMDKPLISLHLVDSDSSLAKVPDEAPKVGILGSGDFARSLATRLVGSGFKVVVGSRNPKRTARLFPSAAQVTFQEEAVSSPEVIFVAVFREHYSSLCSLSDQLAGKILVDVSNPTEQEHLQHRESNAEYLASLFPTCTVVKAFNVISAWTLQAGPRDGNRQVPICGDQPEAKRAVSEMALAMGFMPVDMGSLASAWEVEAMPLRLLPAWKVPTLLALGLFVCFYAYNFVRDVLQPYVQESQNKFFKLPVSVVNTTLPCVAYVLLSLVYLPGVLAAALQLRRGTKYQRFPDWLDHWLQHRKQIGLLSFFCAALHALYSFCLPLRRAHRYDLVNLAVKQVLANKSHLWVEEEVWRMEIYLSLGVLALGTLSLLAVTSLPSIANSLNWREFSFVQSSLGFVALVLSTLHTLTYGWTRAFEESRYKFYLPPTFTLTLLVPCVVILAKALFLLPCISRRLARIRRGWERESTIKFTLPTDHALAEKTSHV

binding [2]: binds
B2: STEAP3 in HEK293 cells (protein, UniProt Q658P3 1-488)
chain: B1 chain
